No constants are given. Whether binding was seen depends on the method and setting. Binding seen in cells or lysates may run through a third protein. Some results given as binding are weak or reduced against the parent protein; the word gives no strength.

Amino acid sequences for entries named in this document (tags omitted).
UniProt P84024: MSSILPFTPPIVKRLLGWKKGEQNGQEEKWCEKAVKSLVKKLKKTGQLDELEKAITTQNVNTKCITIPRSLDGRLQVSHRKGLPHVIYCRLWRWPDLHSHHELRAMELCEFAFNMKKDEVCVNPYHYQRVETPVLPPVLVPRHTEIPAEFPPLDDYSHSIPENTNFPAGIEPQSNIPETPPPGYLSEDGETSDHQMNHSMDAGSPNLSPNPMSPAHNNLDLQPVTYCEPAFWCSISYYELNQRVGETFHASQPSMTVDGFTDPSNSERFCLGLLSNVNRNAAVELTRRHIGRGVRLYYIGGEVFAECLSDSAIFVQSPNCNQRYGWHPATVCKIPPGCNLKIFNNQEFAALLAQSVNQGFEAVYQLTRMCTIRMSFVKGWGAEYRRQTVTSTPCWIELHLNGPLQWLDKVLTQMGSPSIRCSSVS
UniProt F1SJP0: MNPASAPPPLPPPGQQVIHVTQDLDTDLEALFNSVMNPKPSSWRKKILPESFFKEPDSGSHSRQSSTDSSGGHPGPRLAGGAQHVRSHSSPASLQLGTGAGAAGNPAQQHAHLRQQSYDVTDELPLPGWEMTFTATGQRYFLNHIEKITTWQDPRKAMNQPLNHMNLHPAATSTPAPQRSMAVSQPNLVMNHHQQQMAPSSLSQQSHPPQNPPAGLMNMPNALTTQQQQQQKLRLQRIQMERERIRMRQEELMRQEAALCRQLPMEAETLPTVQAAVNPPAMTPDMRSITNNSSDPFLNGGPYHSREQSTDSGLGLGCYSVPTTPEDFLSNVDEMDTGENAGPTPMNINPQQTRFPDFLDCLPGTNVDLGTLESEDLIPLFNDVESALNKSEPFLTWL

This note sets out measurements from publication PMC4873981.

The target in the assay is Smad3, endogenous (pig (endogenous in LLC-PK1)) (UniProt P84024). As to the kind of experiment: co-IP; endogenous proteins, LLC-PK1 cells on BioFlex plates, non-stretch or cyclic stretch 6 h, with or without TGFβ; IPs with antibodies against MRTF, TAZ or Smad3.

For “TAZ, endogenous (from UniProt F1SJP0 1-398)”, the binding entry is “binds”.
